Experimental data as given in US20050267204A1, “Synergistic gold-containing compositions” (MEDICAL INNOVATIONS LIMITED, priority 1996, published 2005).

What was measured:
[1] = tested on: TPA-induced inflammatory cell infiltration into the dermis; assay: Inhibition of TPA-induced inflammatory cell infiltration into the dermis of mice; type: in vivo, BALB/c mice; conditions: Hill coefficient; means ± SD
Protocol: (§1) The mice were housed in stainless steel cages, 6 mice per cage under normal laboratory conditions (room temperature at about 22° C.) at least 7 days before the experiments for acclimatization. Food and water were allowed ad libitum throughout the experiment period. The backs of the mice were shaved with an electric clipper two days before each treatment and only those mice showing no hair regrowth were used (i.e., the mice in the resting phase of the hair growth cycle were selected). During treatment, the mice were held with their tails and put on top of the cage so that they grasped the cage and rested there. The solutions were applied to an area approximately 2 cm×2 cm on the shaved back of the mice by using a “Pipetman” to apply the solution. If auranofin ointment or ointment base was applied, the amount was standardized by using a microspatula which was crimped at one end, the ointment was then put into the ridge and the excess removed by means of another microspatula and applied sparingly twice a day. After a fixed time, the mice were killed routinely by cervical dislocation between 9 a.m. and 11 a.m. to avoid variations due to circadian rhythms, and an area (1 cm×1 cm) was excised from the centre of the treated area by scalpel and scissors. The rest of the tissues were disposed by combustion. The tissues were then fixed, embedded, sectioned and stained.
Infiltration of inflammatory cells was determined by the same image analysis system using the section taken from the block of mouse skin embedded in paraffin wax or Spurr's resin and stained with haematoxylin and eosin or toluidine blue respectively. For each section, 10 fields, unless otherwise stated, were chosen randomly and the cell density per mm^2 of field determined. The average value for the 10 fields was obtained and entered as one value for each mouse. The mean and SEM for the six mice in each treatment group were calculated.
The measurement of the inflammatory cell infiltration included the background values which included other materials in the dermis stained in the same way.
(§2) The percent inhibition of drug on TPA-induced skin responses (i.e., epidermal hyperplasia, inflammatory cell infiltration and skin-fold thickness) was calculated by using the following formula: [formula]
(§3) This provides estimates of (a) the potency, (b) the efficacy or maximum effect (Emax) and the slope of the log concentration-response curve by using Hill coefficient (γ). The Hill Equation may be expressed as follows: [formula] where IC50 is the drug concentration producing 50% of the maximal response and Emax refers to the maximal effect produced by the drug and is also termed efficacy. Efficacy is the measurement of the intrinsic ability of a drug to initiate a response once it occupies receptor sites. […] The Hill coefficient (γ) measures the slope of the dose-effect curve which can be markedly influenced by the shape of the curve that describes the binding of the drug to the receptor. For many drugs, y lies between 0.6 and 1.5. […] On the other hand, when γ is less than 1, with a shallow hyperbolic concentration effect relationship, the activity occurs over a wide range of drug levels.
(§4) In the present study, concentration-response curves were obtained for a series of corticosteroids. In these experiments, curve fitting was accomplished using a computer programme called “The Scientist” (MicroMath Scientific Software, Salt Lake City, Utah, USA.) in which the parameters, Emax, IC50 and Hill coefficient (γ) for each steroids were estimated by using non-linear regression and least square fits.
Mice were divided into treatment groups. TPA and corticosteroids were premixed to the concentrations required and applied to the backs of mice immediately.

[2] = tested on: TPA-induced epidermal hyperplasia; assay: Inhibition of TPA-induced epidermal hyperplasia (epidermal thickness) on back skin of mice; type: in vivo, BALB/c mice; conditions: Hill coefficient; means ± SD
Protocol: as §1
Epidermal thickness was determined by image analysis. This image analysis system was a minicomputer (Tracor Northern TN8500) attached to a light microscope (Zeiss Axioplan) and a camcorder (Sony DXC-3000P). Sections were taken from each tissue block and 20 measurements were taken at fixed intervals from each section. The average value for the 20 measurements was obtained and entered as one value for each mouse. The mean and SEM for the six mice in each treatment group were calculated.
as §2, §3, §4
Mice were divided into treatment groups. TPA and corticosteroids were premixed to the concentrations required and applied to the backs of mice immediately. For those steroids not very soluble in acetone (i.e., betamethasone, dexamethasone, hydrocortisone and hydrocortisone acetate), the drugs were dissolved in 100 μL dimethylformamide before further dilution with acetone. The efficacy of corticosteroids in inhibiting epidermal hyperplasia, inflammatory cell infiltration and skin-fold thickness was assessed as described previously. Concentration-response curves were determined after computer-fitting of data.

Row | Compound | Gamma (γ) [1] | Gamma (γ) [2]
1 | CCC(=O)OCC(=O)[C@@]1(OC(=O)CC)[C@H](C)C[C@H]2[C@H]3[C@H]([C@@H](O)C[C@@]21C)[C@@]1(C)C=CC(=O)C=C1C[C@H]3Cl [Alclometasone dipropionate] | 0.97 ± 0.26 | 0.67 ± 0.12
2 | CCC(=O)OCC(=O)[C@@]1(OC(=O)CC)[C@@H](C)C[C@H]2[C@@H]3CCC4=CC(=O)C=C[C@]4(C)[C@@]3(F)[C@@H](O)C[C@@]21C [Betamethasone dipropionate, betamethasone dipropionate] | 0.52 ± 0.06 | 0.54 ± 0.06
3 | CCCCC(=O)O[C@]1(C(=O)CO)[C@@H](C)C[C@H]2[C@@H]3CCC4=CC(=O)C=C[C@]4(C)[C@@]3(F)[C@@H](O)C[C@@]21C [Betamethasone valerate, betamethasone valerate] | 0.93 ± 0.07 | 0.94 ± 0.12
4 | CC1(C)O[C@@H]2C[C@H]3[C@@H]4C[C@H](F)C5=CC(=O)C=C[C@]5(C)[C@@]4(F)[C@@H](O)C[C@]3(C)[C@]2(C(=O)CO)O1 [Fluocinolone acetonide, fluocinolone acetonide] | 1.05 ± 0.14 | 0.75 ± 0.23
5 | C[C@@H]1C[C@H]2[C@@H]3C[C@H](F)C4=CC(=O)C=C[C@]4(C)[C@H]3[C@@H](O)C[C@]2(C)[C@H]1C(=O)COC(=O)C(C)(C)C [Fluocortolone 21-pivalate] | 0.94 ± 0.21 | 0.97 ± 0.30
6 | CC1(C)O[C@@H]2C[C@H]3[C@@H]4CCC5=CC(=O)CC[C@]5(C)[C@@]4(F)[C@@H](O)C[C@]3(C)[C@]2(C(=O)CCl)O1 [Halcinonide] | 0.60 ± 0.11 | 0.78 ± 0.06
7 | CC(=O)OCC(=O)[C@@]1(O)CC[C@H]2[C@@H]3CCC4=CC(=O)CC[C@]4(C)[C@H]3[C@@H](O)C[C@@]21C [Hydrocortisone acetate, hydrocortisone acetate] | 1.11 ± 0.27 | 0.79 ± 0.13
8 | C[C@]12CCC(=O)C=C1CC[C@@H]1[C@@H]2[C@@H](O)C[C@@]2(C)[C@H]1CC[C@]2(O)C(=O)CO [Hydrocortisone, hydrocortisone] | 0.57 ± 0.26 | 0.96 ± 0.17
9 | C[C@@H]1C[C@H]2[C@@H]3CCC4=CC(=O)C=C[C@]4(C)[C@@]3(Cl)[C@@H](O)C[C@]2(C)[C@@]1(OC(=O)c1ccco1)C(=O)CCl [Mometasone furoate, mometasone furoate] | 0.69 ± 0.14 | 0.79 ± 0.11
